Experimental data taken from US8729083B2, “Pyrazole compounds for controlling invertebrate pests” (BASF SE, priority 2008, dated 2014).
Some entries share one result that the patent states for a list of compounds.

Key:
Type in all cases: in vivo
Aphis craccivora = experiment: Cowpea aphid (Aphis craccivora), spray on potted cowpea plants; conditions: 300 ppm; sprayed; population reduction assessed after 24, 72 and 120 hours
Method: II.3 Cowpea Aphid (Aphis craccivora)
The active compounds were formulated in 50:50 (vol:vol) acetone:water. The test solution was prepared at the day of use.
Potted cowpea plants colonized with 100-150 aphids of various stages were sprayed after the pest population had been recorded. Population reduction was assesed after 24, 72, and 120 hours.

Myzus persicae [1] = experiment: Green peach aphid (Myzus persicae, mixed life stages), method b: electrostatic spray on bell pepper; conditions: 300 ppm; sprayed; after 5 days
Method: II.2 Green Peach Aphid (Myzus persicae, Mixed Life Stages)
(§1) The active compounds were formulated in cyclohexanone as a 10,0000 ppm solution supplied in 1.3 ml ABgene® tubes. These tubes were inserted into an automated electrostatic sprayer equipped with an atomizing nozzle and they served as stock solutions for which lower dilutions were made in 50% acetone:50% water (v/v). A nonionic surfactant (Kinetic®) was included in the solution at a volume of 0.01% (v/v).
Bell pepper plants at the first true-leaf stage were infested prior to treatment by placing heavily infested leaves from the main colony on top of the treatment plants. Aphids were allowed to transfer overnight to accomplish an infestation of 30-50 aphids per plant and the host leaves were removed. The infested plants were then sprayed by an automated electrostatic plant sprayer equipped with an atomizing spray nozzle. The plants were dried in the sprayer fume hood, removed, and then maintained in a growth room under fluorescent lighting in a 24-hr photoperiod at 25° C. and 20-40% relative humidity. Aphid mortality on the treated plants, relative to mortality on untreated control plants, was determined after 5 days.

Megoura viciae = experiment: Vetch aphid (Megoura viciae), bean leaf disks in microtiterplates; conditions: test solution 2500 mg/L; leaf disks sprayed with 2.5 μl; 6 days
Method: II.5 Vetch Aphid (Megoura viciae)
The active compounds were formulated in 1:3 (vol:vol) DMSO:water with different concentrations of formulated compounds.
Bean leaf disks were placed into microtiterplates filled with 0.8% agar-agar and 2.5 ppm OPUS™. The leaf disks were sprayed with 2.5 μl of the test solution and 5 to 8 adult aphids were placed into the microtiterplates which were then closed and kept at 23±1° C. and 50±5% relative humidity under fluorescent light for 6 days. Mortality was assessed on the basis of vital, reproduced aphids. Aphid mortality and fecundity was then visually assessed.

Bemisia argentifolii = experiment: Silverleaf whitefly (Bemisia argentifolii, adult), method a: cotyledon dip; conditions: 300 ppm; cotyledons dipped; 3 days after treatment
Myzus persicae [2] = experiment: Green peach aphid (Myzus persicae) through systemic means, artificial diet under membrane; conditions: 2500 ppm; pipetted into aphid diet; 3 days
Description: II.9 Activity Against Green Peach Aphid (Myzus persicae)
For evaluating control of green peach aphid (Myzus persicae) through systemic means the test unit consisted of 96-well-microtiter plates containing liquid artificial diet under an artificial membrane.
The compounds were formulated using a solution containing 75% v/v water and 25% v/v DMSO. Different concentrations of formulated compounds were pipetted into the aphid diet, using a custom built pipetter, at two replications. After application, 5 to 8 adult aphids were placed on the artificial membrane inside the microtiter plate wells The aphids were then allowed to suck on the treated aphid diet and incubated at about 23+1° C. and about 50+5% relative humidity for 3 days. Aphid mortality and fecundity was then visually assessed.

Ceratitis capitata = experiment: Mediterranean fruitfly (Ceratitis capitata), eggs on insect diet in microtiter plates; conditions: 2500 ppm; 5 μl sprayed onto diet; 5 days
Myzus persicae [3] = experiment: Green peach aphid (Myzus persicae, mixed life stages), method a: leaf dip on pepper; conditions: 300 ppm; leaves dipped; after 5 days
Anthonomus grandis = experiment: Boll weevil (Anthonomus grandis), eggs on insect diet in microtiter plates; conditions: test solution 2500 mg/L; 20 μl sprayed onto diet; 5 days
Method: II.6 Boll Weevil (Anthonomus grandis)
The compounds were formulated in 75:25 (vol:vol) water:DMSO.
For evaluating control of boll weevil (Anthonomus grandis) the test unit consisted of 24-well-microtiter plates containing an insect diet and 20-30 A. grandis eggs. Different concentrations of formulated compounds were sprayed onto the insect diet at 20 μl, using a custom built micro atomizer, at two replications. After application, the microtiter plates were incubated at 23±1° C. and 50±5% relative humidity for 5 days. Egg and larval mortality was then visually assessed.

Aphis gossypii [4] = experiment: Cotton aphid (Aphis gossypii, mixed life stages), method a: cotyledon dip; conditions: 300 ppm; cotyledons dipped; after 5 days
Aphis gossypii [5] = experiment: Cotton aphid (Aphis gossypii, mixed life stages), method b: electrostatic spray; conditions: 300 ppm; sprayed; after 5 days
Method: II.1 Cotton Aphid (Aphis gossypii, Mixed Life Stages)
as §1
Cotton plants at the cotyledon stage were infested with aphids prior to treatment by placing a heavily infested leaf from the main aphid colony on top of each cotyledon. Aphids were allowed to transfer overnight to accomplish an infestation of 80-100 aphids per plant and the host leaf was removed. The infested plants were then sprayed by an automated electrostatic plant sprayer equipped with an atomizing spray nozzle. The plants were dried in the sprayer fume hood, removed from the sprayer, and then maintained in a growth room under fluorescent lighting in a 24 hr photoperiod at 25° C. and 20-40% relative humidity. Aphid mortality on the treated plants, relative to mortality on untreated control plants, was determined after 5 days.

Nilaparvata lugens = experiment: Brown planthopper (Nilaparvata lugens), sprayed rice seedlings; conditions: 500 ppm, after 72 hours
Myzus persicae [6] = experiment: Hydroponic test against green peach aphids (Myzus persicae), bare-root pepper plants; conditions: 100 ppm; bare roots immersed 24 hours; assay 3 days
Heliothis virescens = experiment: Tobacco budworm (Heliothis virescens), eggs on insect diet in microtiter plates; conditions: 2500 ppm; 10 μl sprayed onto diet; 5 days
Dichromothrips Corbetti = experiment: Vanda/orchid thrips (Dichromothrips corbetti), dipped orchid petals; conditions: 500 ppm, after 72 hours
Method: II.11 Activity Against Vanda/Orchid Thrips (Dichromothrips Corbetti)
The active compounds were formulated as a 50:50 (vol:vol) acetone:water solution. Surfactant (Alkamuls EL 620) was added at the rate of 0.1% (vol/vol). Vanda orchids petals were cleaned, washed and air dried prior to spraying. Petals were dipped into the test solution for 3 seconds, air dried, placed inside a resealable plastic and inoculated with 20 adults. The treated petals were kept inside the holding room at 28-29° C. and relative humidity of 50-60%. Percent mortality was recorded after 72 hours.

SMILES	mortality in comparison with untreated controls (Aphis craccivora)	mortality in comparison with untreated controls (Myzus persicae [1])	mortality (Megoura viciae)	mortality in comparison with untreated controls (Bemisia argentifolii)	mortality in comparison with untreated controls (Myzus persicae [2]) [%]	mortality in comparison with untreated controls (egg and larval) (Ceratitis capitata)	mortality in comparison with untreated controls (Myzus persicae [3])	mortality (egg and larval) (Anthonomus grandis)	mortality in comparison with untreated controls (Aphis gossypii [4])	mortality in comparison with untreated controls (Aphis gossypii [5])	mortality in comparison with untreated controls (Nilaparvata lugens)	mortality in comparison with untreated controls (Myzus persicae [6])	mortality in comparison with untreated controls (egg and larval) (Heliothis virescens)	mortality in comparison with untreated controls (Dichromothrips Corbetti)
Cn1cc(C(=O)Nc2ccnnc2)c(C(F)(F)F)n1 [Compound 7]	at least 90%	at least 75%	at least 90%	at least 90%	100	at least 50%	at least 90%	at least 50%	at least 90%	at least 75%				
O=C(Nc1ccnnc1)c1cnn(CC(F)(F)F)c1C(F)(F)F [Compound 5]	at least 90%		at least 90%	at least 90%	100		at least 90%		at least 90%		at least 50%			
O=C(Nc1ccnnc1)c1cnn(-c2ccc([N+](=O)[O-])cc2)c1C(F)(F)F [Compound 3]	at least 90%	at least 75%	at least 90%	at least 90%	100		at least 90%	at least 50%	at least 90%	at least 75%		at least 75%		
O=C(Nc1ccnnc1)c1cnn(-c2ccc(F)cc2F)c1C(F)(F)F [Compound 23]	at least 90%		at least 90%		100			at least 50%					at least 50%	at least 50%
